System: HCoV-229E
Assay: Viral replication inhibition assay: HCoV-229E in MRC5 cells, PFU assay
Format: cell-based, Human Coronavirus 229E

CN(C)C(=O)C(CCN1CCC(O)(c2ccc(Cl)cc2)CC1)(c1ccccc1)c1ccccc1 [Loperamide, loperamide]
SI (selectivity index, CC50/EC50) (HCoV-229E, MRC5 cells): 106.6166
EC50 (Human coronavirus 229E, MRC5, 48 h): 94.7 nM
